Source: PubChem BioAssay AID1794845 (National Center for Advancing Translational Sciences (NCATS), 2023)
Hit rate of the full screen: of about 6,900 compounds, fewer than 10 were called active. Calls follow the shape of the dose curve; as a rule, active = well fitted curve in the direction sought with a large enough effect; inconclusive = small, poorly fitted or top-dose-only effect, or another doubt; inactive = no such curve, though single readings can be large or run the other way. The list shows a part of the results.

Amino acid sequences for entries named in this document (tags omitted). A change or cut given only in a name is not applied to a line headed by its entry.
UniProt C7C422: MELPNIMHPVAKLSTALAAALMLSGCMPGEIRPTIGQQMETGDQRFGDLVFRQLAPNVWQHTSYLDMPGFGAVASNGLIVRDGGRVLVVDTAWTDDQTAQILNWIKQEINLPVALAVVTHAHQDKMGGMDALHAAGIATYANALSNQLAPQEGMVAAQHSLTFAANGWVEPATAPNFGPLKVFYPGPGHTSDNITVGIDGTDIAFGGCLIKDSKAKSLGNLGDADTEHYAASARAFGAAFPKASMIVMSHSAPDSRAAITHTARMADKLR

These molecules were tested against Metallo-beta-lactamase type 2 (Klebsiella pneumoniae) (UniProt C7C422) (assay: qHTS to identify inhibitors of the New Delhi Metallo-beta-lactamase (NDM): primary screen against the NCATS Gemini Collection). Conditions: NDM-1 enzyme, meropenem hydrolysis, absorbance 300 nm; at 38.4 µM (top of the series) unless noted.
How it was run: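 Meropenem hydrolysis (50 uM final) by 2 nM NDM-1 read as 300 nm absorbance after 30 min, following >30 min compound–enzyme preincubation in HEPES pH 7.0 with 1 uM ZnSO4 and 0.01% Tween20.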
Also: % of control where 0% means no effect.

Activity % (negative = inhibition), inactive:
NCCCC(=O)N1CCN(C2CCNCC2)C(=O)C1 -1.32%, C[C@H]1[C@@H]2[C@@H](O)C([C@H](C)C(=O)N3CCCC3)CC[C@@]2(C)CC[C@@H]1NC(=O)Nc1cccc(F)c1 (stereo not given in full) -1.02%, COCCNC(=O)c1ccc(OC2CCN(Cc3ccc(OC)cc3F)CC2)c(Cl)c1 -2.86%, O=C(CCc1nnn2c1CN(C(=O)NCc1ccccc1)CC2)N1CCCC1 -2.37%, O=C(NCC(=O)N1CCN(Cc2ccccc2)CC1)c1cccc(-c2ccsc2)c1 -12.8%, O=[S+]1([O-])NC2(CCN(Cc3ccoc3)CC2)COc2ccccc21 7.13%, CCc1noc(-c2nc(Cc3cccc(F)c3)no2)n1 5.25%, CC1(C)CN(C(=O)c2ccnc(-n3cnnc3)c2)CC1(C)O (stereo not given) 14.4%, COc1ccc(NC(=O)CCC2CCCN(C(=O)c3ccccc3SC)C2)cc1Cl (stereo not given) 3.78%, CCN1CCN(C(=O)c2ccc3nnc(-c4cccnc4)n3c2)CC1 13.6% [at 57.5 µM], O=C1NCCOCCN(C(=O)c2nccc3ccccc23)[C@H]2CCC[C@@H]12 47.4%, Cc1noc(C)c1CN1CCOC[C@H](O)C1 -2.93% [at 77.1 µM], Cc1nc(C2(C)CCN(C(=O)CCc3cc(Cl)no3)CC2)no1 -8.61%, CCC[C@H]1CN(C(=O)c2ccc3c(c2)NC(=O)CN3)C[C@@H]1N 55.8%, Cn1nccc1C(=O)N1CC(c2nc(CCOCC3CCCC3)no2)C1 -2.62%, CCN(Cc1cnn(CC)c1)C(=O)C1COc2ccccc2C1 (stereo not given) 18.4%, Cn1ccc(C(=O)N[C@@H]2COCC[C@@H]2OCc2cscn2)cc1=O 1.36%, CCOC(=O)CCNC(=O)N1CCCC(c2nc(C(C)C)no2)CCNC(=O)CC1 (stereo not given) 5.5%, CN1CC(=O)N(C2CCCNCC2)Cc2c1ncnc2N1CCCC1CO (stereo not given) 13.1%, Cc1ccc(NC(=O)N2CCc3c(c4ccccc4n3CC3CC3)C2)cc1 15.8%, CNC(=O)[C@@H](C1CCCCC1)N1CCC[C@H]1C(=O)NCCN1CCOCC1 21.2% [at 57.5 µM], CCS(=O)(=O)N1CC(F)(F)C[C@H]1c1nc(-c2cccnc2)no1 -14.6%, O=C(Cc1cccs1)N1CCOc2ccc(CN3CCCCC3)cc2C1 5.06%, CN(C)C[C@H]1C[C@@H](CO)CN(C(=O)c2ccccc2-c2ccc(F)cc2)C1 -2.84%, CC(=O)N1C[C@@H](NC(=O)Nc2ccc(F)cc2F)C[C@H]1C(=O)N[C@H](Cc1c[nH]c2ccccc12)C(N)=O -10.3%, COC(=O)[C@@H]1Cc2ncn(Cc3ccc(Cl)cc3)c2CN1CCCc1ccccc1 -2.28% [at 57.5 µM], C[S+](=O)([O-])N1C2CCC1CN(c1ccc(C(F)(F)F)cc1)C2 4.56%, Cn1nc(N2CCC(NC(=O)c3ncccn3)CC2)ccc1=O -1.3%, COc1ccc(C(C)NC(=O)c2ccc(Cn3ccn4nc5c(c4c3=O)CCCC5)cc2)cc1OC (stereo not given) 1.76%, CN1C[C@H](C(=O)Nc2ccccc2)C[C@H]1c1cccc(C(F)(F)F)c1 -1.94% [at 57.5 µM], CC(=O)N1CCC2(C1)N=C(c1ccccn1)C(=O)N2 (stereo not given) 12.6% [at 57.5 µM], CC(C)CN1C(=O)c2cccn2CC1C(=O)N(C)Cc1cccnc1 (stereo not given) 4.23%, Cc1cccc(CC(=O)N2CCCCC2c2nc(C3CC3)n[nH]2)c1 (stereo not given) 0.916%, COC1CCN(CC2CCCCCN2)CC1 (stereo not given) -2.65%, COc1ncccc1-c1nccn2c(C3CN(Cc4ccccc4O)C3)ncc12 38% [at 57.5 µM], O=C(c1cc(F)ccc1F)N1CCCCC1c1nc(-c2cnccn2)n[nH]1 (stereo not given) 32.8%, COC1CCC12CCN(C(=O)c1cnc(C)cn1)CC2 (stereo not given) 10.9%, COc1ccc(CN2CC(Oc3ccccc3C(=O)NCc3ccccc3)C2)c(OC)c1 10.8%, CCCCNC(=O)c1cccc(-c2cc(N3CCN(C)CC3)nc(N)n2)c1 -0.441%, Cc1cc(C)n(CC(=O)N2CCC(c3nc(CCOCC4CCCC4)no3)C2)n1 (stereo not given) 37.5%, O=C(CCN1CCCCO1)N1CCOC(CCCc2ccccc2)C1 (stereo not given) -2.44%, CCn1cc(CN2CCCC23CCN(c2cc(C)nc4ccccc24)CC3)c(C)n1 10.9%, Cc1ncoc1C(=O)N1CC[C@@H]2COCCN(Cc3ccncc3)[C@@H]2C1 12.6%, COCCN[C@H]1[C@@H]2OC[C@@H](O2)[C@@H](NCc2cnc3ccccc3c2)[C@@H]1O 1.55% [at 57.5 µM], COc1ccc(CCc2nc(C3CC(=O)N(c4ccc(Cl)cc4)C3)no2)cc1 (stereo not given) 0.433%, COC(=O)C1=CN(Cc2cccc(Cl)c2)S(=O)(=O)N=C1C 6.3%, CC(=O)Nc1ccc(CN2CC3(Cc4ccccc4NC3=O)C2)cc1 -14.1%, CN1C(=O)c2cccn2CC1C(=O)NC1CCCC1 (stereo not given) 2.09%, CC(C)Cn1c(CNC(=O)OC(C)(C)C)nc2cccnc21 1.49%, Cc1ncccc1-c1nc2cc(C(=O)NCc3ccccc3F)ccc2o1 56% [at 57.5 µM], COc1ccc(CNC(=O)C[C@@H]2CCNC[C@@H]2Cc2cc(C(C)(C)C)on2)cc1 -0.141% [at 57.5 µM], CC(=O)NCCC(=O)N1CCC2(CC1)CN(C(=O)NC(C)C)CCO2 -0.28%, CC(C)CCN1CCNC(=O)C1CC(=O)N(Cc1cnn(C)c1)C1CC1 (stereo not given) 3.07%, COc1ccc(-c2cc3c(=O)n(CCNC(=O)c4ccsc4)ccn3n2)cc1 4.04%, CCOc1ccc(-c2cc3c(=O)n(CCNC(=O)c4cnccn4)ccn3n2)cc1 -2.03%
